The list shows a part of the results.
Key:
Assay in all cases: log2 fold change, soluble protein after heating vs DMSO (PISA); higher = thermal stabilisation; K562 cells, 10 uM, 30 min; active = over 0.2 and 3.5 SD of the protein, either way, in both replicates (recomputed)
[1] = compound: CC1=C(C=C(C=C1)NC(=O)C2=CC(=CC=C2)C(C)(C)C#N)NC3=CC4=C(C=C3)N=CN(C4=O)C
How it was run: (§1)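 Values are thermal stability changes relative to control samples and are taken from duplicates. They are stated as log2 fold changes. Before quantification by TMTpro 16plex LC-MS/MS with equalised channel sums, K562 cells at 2×10^6 cells/mL were treated with 10 μM compound for 30 min, heated in aliquots for 3 min across 48°C-58°C, pooled, extracted in PBS with 0.5% NP-40 at 4°C, and centrifuged at 21,000xg for 90 min to give the soluble supernatant.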

Chains of the proteins cited; added tags and fusions are not shown. Lines headed by an entry give the natural chain unless they say otherwise; changes in a name come on top.
UniProt Q7L5N7: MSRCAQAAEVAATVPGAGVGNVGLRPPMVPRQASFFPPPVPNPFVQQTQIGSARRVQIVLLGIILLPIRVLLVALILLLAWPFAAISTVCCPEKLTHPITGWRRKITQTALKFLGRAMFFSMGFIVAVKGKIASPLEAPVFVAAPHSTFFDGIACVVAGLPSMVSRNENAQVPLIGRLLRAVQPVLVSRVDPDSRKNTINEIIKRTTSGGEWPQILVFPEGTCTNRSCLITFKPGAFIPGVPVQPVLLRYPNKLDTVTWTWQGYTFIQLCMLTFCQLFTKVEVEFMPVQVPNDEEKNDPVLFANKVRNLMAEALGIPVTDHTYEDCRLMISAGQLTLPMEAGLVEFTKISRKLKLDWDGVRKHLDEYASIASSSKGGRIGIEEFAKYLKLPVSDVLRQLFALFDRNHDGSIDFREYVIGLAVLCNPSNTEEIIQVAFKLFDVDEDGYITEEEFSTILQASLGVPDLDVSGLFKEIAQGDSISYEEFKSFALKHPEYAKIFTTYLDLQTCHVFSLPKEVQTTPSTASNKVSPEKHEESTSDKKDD
UniProt Q86WA8: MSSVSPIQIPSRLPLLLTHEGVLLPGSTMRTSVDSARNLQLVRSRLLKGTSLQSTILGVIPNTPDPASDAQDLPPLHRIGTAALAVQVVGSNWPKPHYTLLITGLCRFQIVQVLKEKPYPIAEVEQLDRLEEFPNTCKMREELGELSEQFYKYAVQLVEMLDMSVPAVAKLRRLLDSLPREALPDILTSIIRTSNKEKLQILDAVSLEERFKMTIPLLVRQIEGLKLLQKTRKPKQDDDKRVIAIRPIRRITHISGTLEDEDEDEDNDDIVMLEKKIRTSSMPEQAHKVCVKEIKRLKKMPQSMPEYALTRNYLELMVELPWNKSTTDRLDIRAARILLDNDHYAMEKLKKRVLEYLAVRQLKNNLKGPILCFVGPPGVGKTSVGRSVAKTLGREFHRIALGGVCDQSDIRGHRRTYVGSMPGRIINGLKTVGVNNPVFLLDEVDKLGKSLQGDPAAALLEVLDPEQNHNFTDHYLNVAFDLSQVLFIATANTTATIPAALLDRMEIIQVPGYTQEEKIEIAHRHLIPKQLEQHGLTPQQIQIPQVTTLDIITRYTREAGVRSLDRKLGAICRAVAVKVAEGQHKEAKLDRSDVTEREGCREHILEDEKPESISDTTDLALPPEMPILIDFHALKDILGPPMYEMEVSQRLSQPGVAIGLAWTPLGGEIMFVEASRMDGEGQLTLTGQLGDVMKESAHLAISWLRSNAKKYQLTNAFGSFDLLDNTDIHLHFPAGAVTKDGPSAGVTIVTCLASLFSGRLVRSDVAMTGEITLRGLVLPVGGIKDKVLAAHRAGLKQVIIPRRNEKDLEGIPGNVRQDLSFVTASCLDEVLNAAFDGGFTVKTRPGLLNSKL
UniProt P49257: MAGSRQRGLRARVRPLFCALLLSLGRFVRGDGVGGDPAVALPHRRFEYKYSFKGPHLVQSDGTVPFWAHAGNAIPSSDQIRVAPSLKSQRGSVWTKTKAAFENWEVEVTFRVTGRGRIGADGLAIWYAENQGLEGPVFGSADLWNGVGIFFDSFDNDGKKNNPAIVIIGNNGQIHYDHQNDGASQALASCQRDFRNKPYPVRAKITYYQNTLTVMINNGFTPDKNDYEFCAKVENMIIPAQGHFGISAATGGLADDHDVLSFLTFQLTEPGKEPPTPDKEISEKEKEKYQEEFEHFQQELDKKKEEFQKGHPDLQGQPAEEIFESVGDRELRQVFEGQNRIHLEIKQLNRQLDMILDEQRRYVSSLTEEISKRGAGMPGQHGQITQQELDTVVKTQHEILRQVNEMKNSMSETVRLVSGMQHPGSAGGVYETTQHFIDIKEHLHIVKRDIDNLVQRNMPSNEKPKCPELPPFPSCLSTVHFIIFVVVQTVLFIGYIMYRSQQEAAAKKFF
UniProt Q96BZ8: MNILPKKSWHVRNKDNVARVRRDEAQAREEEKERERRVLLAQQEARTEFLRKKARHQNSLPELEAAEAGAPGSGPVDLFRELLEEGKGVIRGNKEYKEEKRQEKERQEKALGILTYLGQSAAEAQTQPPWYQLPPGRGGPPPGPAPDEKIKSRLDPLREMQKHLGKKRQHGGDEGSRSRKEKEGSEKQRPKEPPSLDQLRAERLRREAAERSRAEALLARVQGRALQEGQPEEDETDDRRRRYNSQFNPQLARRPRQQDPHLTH
UniProt P80188: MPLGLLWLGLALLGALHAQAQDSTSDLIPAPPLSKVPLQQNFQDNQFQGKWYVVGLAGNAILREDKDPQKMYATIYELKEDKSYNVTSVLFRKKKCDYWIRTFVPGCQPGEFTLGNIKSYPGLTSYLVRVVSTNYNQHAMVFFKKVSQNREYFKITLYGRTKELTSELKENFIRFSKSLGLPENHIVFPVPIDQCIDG
UniProt Q9H9A6: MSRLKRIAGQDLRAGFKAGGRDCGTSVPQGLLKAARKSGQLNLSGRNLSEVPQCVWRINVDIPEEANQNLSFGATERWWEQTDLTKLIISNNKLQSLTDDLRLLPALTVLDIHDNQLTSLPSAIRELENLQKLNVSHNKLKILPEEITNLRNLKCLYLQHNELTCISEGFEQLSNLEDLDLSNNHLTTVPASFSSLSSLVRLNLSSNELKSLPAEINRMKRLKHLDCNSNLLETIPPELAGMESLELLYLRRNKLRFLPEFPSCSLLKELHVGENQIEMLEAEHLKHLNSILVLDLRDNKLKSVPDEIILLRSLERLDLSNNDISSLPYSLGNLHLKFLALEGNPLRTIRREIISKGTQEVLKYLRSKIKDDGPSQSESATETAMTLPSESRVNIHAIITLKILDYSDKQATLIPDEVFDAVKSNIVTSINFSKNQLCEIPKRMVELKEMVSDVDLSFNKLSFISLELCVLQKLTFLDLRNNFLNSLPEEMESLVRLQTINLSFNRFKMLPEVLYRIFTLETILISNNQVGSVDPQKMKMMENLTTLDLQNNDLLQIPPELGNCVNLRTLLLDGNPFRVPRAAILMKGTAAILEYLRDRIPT
UniProt P07195, whole entry, looked up: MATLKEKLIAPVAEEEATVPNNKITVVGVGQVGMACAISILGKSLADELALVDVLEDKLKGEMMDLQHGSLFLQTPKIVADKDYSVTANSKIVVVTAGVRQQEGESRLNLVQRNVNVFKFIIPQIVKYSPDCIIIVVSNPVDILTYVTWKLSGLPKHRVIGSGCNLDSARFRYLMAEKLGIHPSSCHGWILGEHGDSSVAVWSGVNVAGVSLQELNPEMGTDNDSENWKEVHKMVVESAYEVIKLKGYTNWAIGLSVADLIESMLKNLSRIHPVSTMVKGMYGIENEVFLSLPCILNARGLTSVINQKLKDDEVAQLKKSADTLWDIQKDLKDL
UniProt Q9UN81: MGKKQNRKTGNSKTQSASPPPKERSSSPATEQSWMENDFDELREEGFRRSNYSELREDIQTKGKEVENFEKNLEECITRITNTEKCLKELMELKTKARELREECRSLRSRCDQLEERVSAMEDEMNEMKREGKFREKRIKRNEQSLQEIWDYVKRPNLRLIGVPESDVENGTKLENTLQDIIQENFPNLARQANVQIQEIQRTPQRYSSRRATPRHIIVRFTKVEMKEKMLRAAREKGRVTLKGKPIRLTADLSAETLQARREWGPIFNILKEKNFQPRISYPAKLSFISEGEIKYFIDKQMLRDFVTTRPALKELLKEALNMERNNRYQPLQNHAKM
UniProt Q68DH5: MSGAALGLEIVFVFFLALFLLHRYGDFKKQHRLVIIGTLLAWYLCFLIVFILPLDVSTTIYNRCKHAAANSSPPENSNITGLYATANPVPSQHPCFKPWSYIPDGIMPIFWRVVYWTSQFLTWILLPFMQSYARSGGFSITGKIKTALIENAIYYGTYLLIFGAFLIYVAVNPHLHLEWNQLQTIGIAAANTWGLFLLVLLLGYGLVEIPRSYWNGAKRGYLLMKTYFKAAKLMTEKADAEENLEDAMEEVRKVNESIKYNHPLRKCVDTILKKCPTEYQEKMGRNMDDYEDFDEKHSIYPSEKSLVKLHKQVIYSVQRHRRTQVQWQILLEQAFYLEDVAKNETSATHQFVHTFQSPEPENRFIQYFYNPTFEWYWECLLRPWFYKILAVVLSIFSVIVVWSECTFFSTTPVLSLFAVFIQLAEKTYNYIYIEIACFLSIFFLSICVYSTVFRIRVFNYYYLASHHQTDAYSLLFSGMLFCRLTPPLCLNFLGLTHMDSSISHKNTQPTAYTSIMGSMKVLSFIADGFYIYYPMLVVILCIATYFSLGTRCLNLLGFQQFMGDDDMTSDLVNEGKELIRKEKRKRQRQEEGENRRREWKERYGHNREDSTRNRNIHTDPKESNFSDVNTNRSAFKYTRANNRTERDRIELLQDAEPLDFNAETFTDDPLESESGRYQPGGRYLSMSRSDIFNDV
UniProt P13473: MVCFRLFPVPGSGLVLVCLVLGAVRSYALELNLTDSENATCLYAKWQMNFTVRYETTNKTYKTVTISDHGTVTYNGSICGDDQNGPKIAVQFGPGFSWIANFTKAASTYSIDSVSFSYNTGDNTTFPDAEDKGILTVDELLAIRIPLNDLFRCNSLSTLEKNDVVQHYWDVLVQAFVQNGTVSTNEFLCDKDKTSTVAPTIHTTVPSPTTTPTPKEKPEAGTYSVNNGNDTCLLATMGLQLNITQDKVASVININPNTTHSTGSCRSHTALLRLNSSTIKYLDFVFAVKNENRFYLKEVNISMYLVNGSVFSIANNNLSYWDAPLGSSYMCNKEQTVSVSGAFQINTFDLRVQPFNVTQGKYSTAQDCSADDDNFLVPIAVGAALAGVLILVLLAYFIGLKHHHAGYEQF
UniProt P20700: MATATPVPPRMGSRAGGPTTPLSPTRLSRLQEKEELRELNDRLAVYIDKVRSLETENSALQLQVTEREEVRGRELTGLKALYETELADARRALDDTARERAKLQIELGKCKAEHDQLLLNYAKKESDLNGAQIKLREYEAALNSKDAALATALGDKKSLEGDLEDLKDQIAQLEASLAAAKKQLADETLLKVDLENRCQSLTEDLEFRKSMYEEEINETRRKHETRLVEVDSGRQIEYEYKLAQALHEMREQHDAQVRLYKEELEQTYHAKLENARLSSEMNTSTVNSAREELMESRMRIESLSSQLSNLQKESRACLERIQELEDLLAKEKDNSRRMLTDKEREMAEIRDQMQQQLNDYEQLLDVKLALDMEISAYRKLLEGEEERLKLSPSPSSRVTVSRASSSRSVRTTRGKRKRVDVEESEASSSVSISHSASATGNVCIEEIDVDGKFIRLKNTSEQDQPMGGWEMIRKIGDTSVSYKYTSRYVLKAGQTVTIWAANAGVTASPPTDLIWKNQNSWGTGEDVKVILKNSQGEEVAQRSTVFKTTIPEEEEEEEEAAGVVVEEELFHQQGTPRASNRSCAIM
UniProt Q4G0J3: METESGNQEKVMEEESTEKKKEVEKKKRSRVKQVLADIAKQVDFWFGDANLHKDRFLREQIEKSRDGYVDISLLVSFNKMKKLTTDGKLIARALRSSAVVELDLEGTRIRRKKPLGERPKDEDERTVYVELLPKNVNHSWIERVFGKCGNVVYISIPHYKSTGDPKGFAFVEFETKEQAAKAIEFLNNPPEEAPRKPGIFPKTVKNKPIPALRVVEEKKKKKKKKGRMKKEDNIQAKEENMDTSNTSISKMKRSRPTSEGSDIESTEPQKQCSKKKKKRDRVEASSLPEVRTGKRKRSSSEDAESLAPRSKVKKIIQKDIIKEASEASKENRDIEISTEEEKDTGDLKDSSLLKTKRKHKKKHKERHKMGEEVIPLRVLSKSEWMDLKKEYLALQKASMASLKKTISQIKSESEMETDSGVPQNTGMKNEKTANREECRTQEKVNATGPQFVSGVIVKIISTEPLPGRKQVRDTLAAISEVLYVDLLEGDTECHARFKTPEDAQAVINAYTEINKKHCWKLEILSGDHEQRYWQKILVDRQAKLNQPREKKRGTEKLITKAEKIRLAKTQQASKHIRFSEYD
UniProt P83111: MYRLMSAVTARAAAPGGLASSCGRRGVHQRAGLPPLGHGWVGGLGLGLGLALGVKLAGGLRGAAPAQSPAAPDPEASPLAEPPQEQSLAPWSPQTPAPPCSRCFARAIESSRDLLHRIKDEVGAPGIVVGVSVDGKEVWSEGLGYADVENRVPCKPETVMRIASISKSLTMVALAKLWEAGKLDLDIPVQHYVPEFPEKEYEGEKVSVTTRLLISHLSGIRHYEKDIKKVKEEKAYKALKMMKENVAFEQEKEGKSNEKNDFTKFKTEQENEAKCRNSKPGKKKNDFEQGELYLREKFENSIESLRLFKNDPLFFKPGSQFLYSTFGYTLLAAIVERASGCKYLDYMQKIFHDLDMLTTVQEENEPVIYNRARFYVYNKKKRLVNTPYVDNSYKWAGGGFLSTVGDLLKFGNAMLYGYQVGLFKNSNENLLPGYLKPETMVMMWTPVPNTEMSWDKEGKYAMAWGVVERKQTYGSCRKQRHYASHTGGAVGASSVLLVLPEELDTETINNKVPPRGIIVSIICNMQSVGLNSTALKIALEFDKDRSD

[2] = compound: CC1=C(C=C(C=C1)NC(=O)C2=CC(=CC=C2)N(C)C)NC(=O)C3=CC=C(C=C3)O
How it was run: as §1

[3] = compound: CC1=CC=C(C=C1)SC2=C3C=C(SC3=CN=C2)C(=O)N
How it was run: as §1

[4] = compound: CC1=NC(=CC=C1)C2=C(N=C(N2)C(C)(C)C)C3=CC4=NC=CN=C4C=C3
How it was run: as §1

Nexturastat A = compound: CCCCN(Cc1ccc(C(=O)NO)cc1)C(=O)Nc1ccccc1 [Nexturastat A]
How it was run: as §1

vemurafenib = compound: CCCS(=O)(=O)Nc1ccc(F)c(C(=O)c2c[nH]c3ncc(-c4ccc(Cl)cc4)cc23)c1F [vemurafenib]
How it was run: as §1

[5] = compound: CCCS(=O)(=O)Nc1ccc(F)c(C(=O)c2c[nH]c3ncc(Cl)cc23)c1F
How it was run: as §1

[6] = compound: CCCc1cc(C)[nH]c(=O)c1CNC(=O)c1cc(-c2ccnc(N3CCN(C)CC3)c2)cc2c1cnn2C(C)C
How it was run: as §1

givinostat = compound: CCN(CC)Cc1ccc2cc(COC(=O)Nc3ccc(C(=O)NO)cc3)ccc2c1 [givinostat]
How it was run: as §1

barasertib = compound: CCN(CCCOc1ccc2c(Nc3cc(CC(=O)Nc4cccc(F)c4)[nH]n3)ncnc2c1)CCOP(=O)(O)O [barasertib]
How it was run: as §1

Measured: log2 fold change

LPCAT2 (UniProt Q7L5N7)
inactive: [1] 0.051 | [2] -0.076 | [3] 0.021 | [4] 0.145 | Nexturastat A -0.102 | vemurafenib 0.051 | [5] -0.027 | [6] -0.055 | givinostat 0.079 | barasertib 0.068

LONP2 (UniProt Q86WA8)
inactive: [1] 0.173 | [2] -0.119 | [3] 0.08 | [4] 0.009 | Nexturastat A -0.083 | vemurafenib 0.128 | [5] -0.137 | [6] 0.013 | givinostat -0.05 | barasertib -0.056

LMAN1 (UniProt P49257)
inactive: [1] -0.024 | [2] -0.017 | [3] -0.004 | [4] -0.02 | Nexturastat A 0 | vemurafenib -0.021 | [5] 0.009 | [6] -0.044 | givinostat 0.003 | barasertib 0.009

LDHA isoform 3 (UniProt P00338)
inactive: [1] -0.006 | [2] 0.015 | [3] 0.024 | [4] 0.008 | Nexturastat A -0.077 | vemurafenib 0.013 | [5] 0.03 | [6] -0.015 | givinostat -0.008 | barasertib -0.015

LDB1 (UniProt Q86U70)
inactive: [1] 0.016 | [2] 0.023 | [3] 0.022 | [4] -0.027 | Nexturastat A -0.024 | vemurafenib -0.008 | [5] -0.007 | [6] -0.022 | givinostat 0.003 | barasertib -0.034

LMO2 isoform 3 (UniProt P25791)
inactive: [1] 0.018 | [2] 0.004 | [3] 0.007 | [4] -0.021 | Nexturastat A -0.135 | vemurafenib 0.007 | [5] -0.004 | [6] -0.151 | givinostat -0.138 | barasertib -0.031

KYAT1 (UniProt Q16773)
inactive: [1] 0.021 | [2] -0.014 | [3] 0.041 | [4] 0.042 | Nexturastat A -0.033 | vemurafenib -0.006 | [5] 0.045 | [6] -0.024 | givinostat -0.006 | barasertib -0.032

LENG1 (UniProt Q96BZ8)
inactive: [1] -0.053 | [2] -0.016 | [3] -0.012 | [4] -0.107 | Nexturastat A -0.027 | vemurafenib -0.133 | [5] -0.029 | [6] -0.058 | givinostat 0.012 | barasertib -0.01

LRIF1 (UniProt Q5T3J3)
inactive: [1] -0.089 | [2] 0.04 | [3] -0.083 | [4] -0.01 | Nexturastat A 0.144 | vemurafenib 0.016 | [5] -0.028 | [6] -0.013 | givinostat -0.042 | barasertib -0.129

LARP4B (UniProt Q92615)
inactive: [1] 0.055 | [2] 0.032 | [3] 0.016 | [4] 0.001 | Nexturastat A 0.127 | vemurafenib 0.016 | [5] 0.022 | [6] 0.05 | givinostat 0.061 | barasertib -0.025

LCN2 isoform 2 (UniProt P80188)
inactive: [1] -0.289

LRRC40 (UniProt Q9H9A6)
inactive: [1] 0.071 | [2] -0.005 | [3] 0.012 | [4] 0.02 | Nexturastat A 0.006 | vemurafenib 0.065 | [5] 0.098 | [6] 0.053 | givinostat 0.122 | barasertib 0.074

LDHB (UniProt P07195)
inactive: [1] -0.011 | [2] 0.009 | [3] 0.016 | [4] -0.002 | Nexturastat A -0.061 | vemurafenib 0.001 | [5] -0.015 | [6] -0.127 | givinostat -0.01 | barasertib -0.026

LIN7A (UniProt O14910)
inactive: [1] -0.042 | [2] -0.008 | [3] 0.122 | [4] -0.058 | Nexturastat A -0.012 | vemurafenib -0.038 | [5] 0.112 | [6] -0.031 | givinostat -0.034 | barasertib 0.002

LIMK2 isoform 3 (UniProt P53671)
inactive: [1] -0.195 | [2] 0.016 | [3] -0.197 | [4] 0.045 | Nexturastat A 0 | vemurafenib -0.224 | [5] -0.154 | [6] -0.527 | givinostat 0.144 | barasertib 0.035

LARS2 (UniProt Q15031)
inactive: [1] -0.004 | [2] -0.022 | [3] -0.013 | [4] 0.018 | Nexturastat A -0.063 | vemurafenib 0.048 | [5] 0.056 | [6] -0.001 | givinostat 0.009 | barasertib 0.036

L1RE1 (UniProt Q9UN81)
inactive: [1] 0.019 | [2] 0.123 | [3] 0.018 | [4] -0.11 | Nexturastat A 0.389 | vemurafenib -0.01 | [5] -0.057 | [6] 0 | givinostat -0.029 | barasertib -0.11

LMBR1 isoform 3 (UniProt Q8WVP7)
inactive: [1] -0.156 | [2] 0.17 | [3] 0.128 | [4] 0.036 | Nexturastat A 0.134 | vemurafenib 0.049 | [5] 0.175 | [6] -0.086 | givinostat 0 | barasertib -0.007

LEPR (UniProt P48357)
inactive: [1] 0.019 | [2] -0.032 | [3] -0.032 | [4] -0.015 | Nexturastat A -0.035 | vemurafenib 0.009 | [5] -0.041 | [6] 0.015 | givinostat 0.025 | barasertib 0.025

LMBRD2 (UniProt Q68DH5)
inactive: [1] -0.038 | [2] 0.016 | [3] 0.043 | [4] 0 | Nexturastat A 0.019 | vemurafenib -0.052 | [5] -0.03 | [6] 0.038 | givinostat 0.043 | barasertib 0.011

LAMP2 (UniProt P13473)
inactive: [1] 0 | [2] 0.093 | [3] -0.043 | [4] 0.066 | Nexturastat A -0.104 | vemurafenib 0.05 | [5] 0.048 | [6] -0.028 | givinostat -0.02 | barasertib 0.007

LIMD1 (UniProt Q9UGP4)
inactive: [1] 0 | [2] 0.009 | [3] 0.037 | [4] -0.012 | Nexturastat A -0.022 | vemurafenib 0.024 | [5] 0.084 | [6] 0.019 | givinostat 0.02 | barasertib -0.017

LASP1 (UniProt Q14847)
inactive: [1] 0.014 | [2] 0.006 | [3] 0.018 | [4] 0.036 | Nexturastat A -0.026 | vemurafenib -0.001 | [5] -0.021 | [6] 0.065 | givinostat -0.03 | barasertib -0.002

LAMTOR5 (UniProt O43504)
inactive: [1] 0.044 | [2] -0.026 | [3] -0.006 | [4] -0.065 | Nexturastat A 0.156 | vemurafenib 0.13 | [5] 0.039 | [6] 0.134 | givinostat 0 | barasertib 0.049

LMNB1 (UniProt P20700)
inactive: [1] -0.019 | [2] 0.027 | [3] -0.046 | [4] -0.012 | Nexturastat A -0.045 | vemurafenib 0.1 | [5] 0.065 | [6] -0.029 | givinostat 0.002 | barasertib 0.021

LARP7 isoform 3 (UniProt Q4G0J3)
inactive: [1] -0.011 | [2] 0.054 | [3] -0.03 | [4] -0.053 | Nexturastat A 0.016 | vemurafenib 0.027 | [5] 0.045 | [6] 0.004 | givinostat -0.03 | barasertib 0

Reprinted at random: 2 records from the list.
LRIF1 (UniProt Q5T3J3)
inactive: [1] -0.089 | [2] 0.04 | [3] -0.083 | [4] -0.01 | Nexturastat A 0.144 | vemurafenib 0.016 | [5] -0.028 | [6] -0.013 | givinostat -0.042 | barasertib -0.129

LCN2 isoform 2 (UniProt P80188)
inactive: [1] -0.289

Next part.

LACTB (UniProt P83111)
inactive: [1] 0.05 | [2] 0.068 | [3] -0.012 | [4] -0.156 | Nexturastat A 0.089 | vemurafenib 0.18 | [5] -0.051 | [6] 0.039 | givinostat 0.005 | barasertib 0.033

KYAT3 (UniProt Q6YP21)
inactive: [1] -0.01 | [2] 0.015 | [3] -0.002 | [4] 0.006 | Nexturastat A -0.093 | vemurafenib 0 | [5] 0.032 | [6] -0.018 | givinostat -0.021 | barasertib 0.005

From the supplement of paper PMC10849652
